# Measurements taken from patent publication US11034685B2, “Aminopyridine derivatives as TAM family kinase inhibitors” (SignalChem Lifesciences Corporation, priority 2013, dated 2021).
# Amino acid sequences for entries named in this document (tags omitted). Residues count along the entry.
# UniProt Q06418, 455-890 limits assumed: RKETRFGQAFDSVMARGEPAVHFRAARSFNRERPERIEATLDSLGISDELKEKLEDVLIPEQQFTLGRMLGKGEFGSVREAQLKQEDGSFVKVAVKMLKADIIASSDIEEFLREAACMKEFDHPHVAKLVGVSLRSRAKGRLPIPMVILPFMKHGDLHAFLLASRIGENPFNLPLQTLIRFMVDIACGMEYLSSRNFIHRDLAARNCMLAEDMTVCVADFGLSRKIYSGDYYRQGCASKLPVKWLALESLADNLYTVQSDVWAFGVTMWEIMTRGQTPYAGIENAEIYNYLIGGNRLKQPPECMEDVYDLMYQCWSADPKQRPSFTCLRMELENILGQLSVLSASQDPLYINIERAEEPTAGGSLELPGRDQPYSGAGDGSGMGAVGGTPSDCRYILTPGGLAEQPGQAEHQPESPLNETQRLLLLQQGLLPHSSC
# UniProt Q12866, 578-872 limits assumed: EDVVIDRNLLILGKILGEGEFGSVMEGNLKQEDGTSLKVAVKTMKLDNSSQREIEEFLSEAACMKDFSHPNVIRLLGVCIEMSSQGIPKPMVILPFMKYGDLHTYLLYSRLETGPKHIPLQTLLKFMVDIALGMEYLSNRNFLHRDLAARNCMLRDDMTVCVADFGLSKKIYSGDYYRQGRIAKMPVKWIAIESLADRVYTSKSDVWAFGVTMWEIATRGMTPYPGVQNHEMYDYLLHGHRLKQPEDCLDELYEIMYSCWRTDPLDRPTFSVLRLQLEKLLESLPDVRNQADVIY
# UniProt P30530, 473-894 limits assumed: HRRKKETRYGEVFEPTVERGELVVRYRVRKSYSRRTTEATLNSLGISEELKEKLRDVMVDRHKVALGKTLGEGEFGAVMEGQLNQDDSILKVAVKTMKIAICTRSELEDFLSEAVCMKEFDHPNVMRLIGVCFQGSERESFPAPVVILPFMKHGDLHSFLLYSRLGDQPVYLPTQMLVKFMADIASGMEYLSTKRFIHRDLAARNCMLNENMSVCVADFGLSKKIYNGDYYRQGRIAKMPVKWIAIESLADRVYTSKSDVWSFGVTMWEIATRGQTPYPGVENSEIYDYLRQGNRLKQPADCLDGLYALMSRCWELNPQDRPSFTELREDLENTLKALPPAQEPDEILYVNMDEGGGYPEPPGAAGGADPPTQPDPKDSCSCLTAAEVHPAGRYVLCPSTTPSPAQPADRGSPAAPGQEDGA
# The structures given here were assigned with low confidence; some may be wrong.
# Legend:
# [1] = target: Recombinant human Tyro3 (455-end) (Homo sapiens, UniProt Q06418); assay: Kinase enzymatic activity assay ([33P]-ATP phosphate transfer), Tyro3; details: read-out: IC50 Tyro3; inhibitory activity on Tyro3; class symbols
# Description: (§1) Preparation of Active Recombinant Kinase Proteins:
# (§2) Recombinant human Tyro3 (455-end, the gene accession number NM_006293), human Axl (473-end, the gene accession number NM_021913) and human Mer (578-872, the gene accession number NM_006343) were independently expressed by baculovirus in Sf9 insect cells using an N-terminal GST tag. The recombinant proteins were stored at −70° C. in a medium containing 50 mM Tris-HCl, pH 7.5, 150 mM NaCl, 10 mM glutathione, 0.1 mM EDTA, 0.25 mM DTT, 0.1 mM PMSF and 25% glycerol. The recombinant proteins were aliquoted into smaller quantities after centrifugation to avoid repeated handling and multiple freeze/thaw cycles for the most favorable performance.
# (§3) Preparation of Assay Reagents: […]
# (§4) The enzymatic activity of all three kinases was determined as follows. […] After the plate was dried in air, scintillation fluid was added to each well and the radioactivity in each well in CPM was counted by a Microbeta TriLux. The corrected CPM in each test well was determined by subtracting the average value of Blank well values. Percentage of inhibition of the kinase enzymatic activity by the test compound was determined using the following formula: […]
# (§5) The IC50 values were determined in a similar way following a serial dilution of the test compound. The percentage of inhibition at each concentration was calculated following the above formula. […]
# human Mer (578-872) = human Mer (578-872) (Homo sapiens, UniProt Q12866); assay: Kinase enzymatic activity assay ([33P]-ATP phosphate transfer), Mer; details: read-out: IC50 Mer; inhibitory activity on Mer; class symbols
# Description: as §1, §2, §3, §4, §5
# human Axl (473-end) = human Axl (473-end) (Homo sapiens, UniProt P30530); assay: Kinase enzymatic activity assay ([33P]-ATP phosphate transfer), Axl; details: read-out: IC50 Axl; inhibitory activity on Axl; class symbols
# Description: as §1, §2, §3, §4, §5
smiles,measurement,setting,value
CN1CCC(n2cc(-c3cnc(N)c(-c4ccc(-c5ccccc5)o4)c3)cn2)CC1,IC50,[1],< 500 nM
same,IC50,human Mer (578-872),1000 to 10000 nM
same,IC50,human Axl (473-end),< 500 nM
